Where a name gives a salt, the structure may show the parent alone.
Tests used:
mouse PCLS [1] = assay: LC–MS/MS quantification of intracellular BAs in mouse PCLS; type: cell-based; conditions: 48 h
Protocol: In short, freshly prepared PCLS were transferred to 12-well plates (Greiner bio-one GmbH, Austria), one slice per well. […] The composition of the human-like BA mixture was based on serum concentrations in mice and humans, measured by […]. […] A Shimadzu Nexera X2 HPLC system with binary pumps was interfaced to a Thermo Scientific TSQ Quantum ultra-triple quadrupole mass spectrometer. The BA analysis was performed by liquid chromatography-tandem mass spectrometry (LC-MS/MS). Xcalibur software version 2.0.7 by Thermo Scientific was applied in the data processing. […] Phenomenex, Utrecht, the Netherlands) reversed-phase column was used to separate the BAs. The column and autosampler temperatures were set at 55 °C and 4 °C, respectively. The injection volume was 15 μL, and the flow was set at 0.3 mL/min. […] Intracellular BA concentrations in PCLS were measured by LC-MS/MS. Sample preparation for these measurements of intracellular BAs was performed as follows. […] Hereafter, three slices for each condition were pooled in a 1.5-mL test tube, snap-frozen in liquid nitrogen and stored at -80 °C until analysis. […] Samples were subsequently centrifuged for 15 min at 15 °C and 13,000 rpm. The supernatant was collected in a new tube, and the samples were concentrated using a Concentrator plus centrifuge (Eppendorf, Germany). […] The concentrations of CA, CDCA, DCA, LCA, UDCA, HDCA, […] and GCA were determined with MRM-based LC-MS as described above.

mouse PCLS [2] = assay: Viability of mouse PCLS by ATP content (ATP bioluminescence, normalized to protein); type: cell-based
Protocol: In short, freshly prepared PCLS were transferred to 12-well plates (Greiner bio-one GmbH, Austria), one slice per well. Each well was filled with 1.3 mL pre-heated (37 ℃) and oxygenated (80%) Williams Medium E (1X, glutaMAX-1), which had been supplemented with 25 mM D-glucose monohydrate and 50 μg/ml Gentamicin (denoted as WME GG). […] The DMSO concentration used was below 0.5% in the incubation medium, equivalent to DMSO concentrations in solutions prepared by dilution of BA stock solutions with WME GG.
ATP was extracted by homogenization, followed by the centrifugation of the homogenate (16,000g at 4 °C for 5 min). The supernatant was collected, and the pellet was left to dry. An ATP Bioluminescence Assay Kit (Roche Diagnostics, Mannheim, Germany) was used to determine ATP content in the supernatant. The dried pellet was used to determine the total protein content of the PCLS using the Bio-Rad DC Protein Assay (Bio-Rad, Munich, Germany). The obtained ATP values were then normalized for the total protein content of the slice.
A minimum of three mouse livers was used for each experiment, using PCLS in triplicate from each liver. GraphPad Prism 8.4.3 was used to perform statistical analysis, using a Student’s unpaired two-tailed T-test to compare two means, or a one-way ANOVA to compare multiple means. One-way ANOVA was followed by either Tukey’s multiple comparisons test to compare all means within a dataset, or Dunnett’s multiple comparisons test to compare all means with their own control mean. Nonlinear regression analysis was followed by an extra sum of squares F-test to compare two fits. mRNA expression levels are shown as Log2(fold induction) (− ΔΔCt), though the data was statistically analyzed using the cycle threshold (ΔCt) values. Differences between groups were considered significant when p < 0.05.

[3] = with humanized BA mixture, CPZ 15 µM, CSA 1 µM, GB 25 µM
[4] = with humanized BA mixture, CPZ 30 µM, CSA 6 µM, GB 65 µM
[5] = without BA mixture, CPZ 15 µM, CSA 1 µM, GB 25 µM
[6] = without BA mixture, CPZ 30 µM, CSA 6 µM, GB 65 µM

CN(C)CCCN1c2ccccc2Sc2ccc(Cl)cc21 [CPZ, Chlorpromazine hydrochloride]
CA, percent of total measured BA (mouse PCLS [1]; [3]): 36.0%
CDCA, percent of total measured BA (mouse PCLS [1]; [3]): 2.9%
DCA, percent of total measured BA (mouse PCLS [1]; [3]): 12.1%
GCA, percent of total measured BA (mouse PCLS [1]; [3]): 4.8%
HDCA, percent of total measured BA (mouse PCLS [1]; [3]): 0.6%
LCA, percent of total measured BA (mouse PCLS [1]; [3]): 0.5%
TCA, percent of total measured BA (mouse PCLS [1]; [3]): 33.8%
TCDCA, percent of total measured BA (mouse PCLS [1]; [3]): 1.4%
TDCA, percent of total measured BA (mouse PCLS [1]; [3]): 2.0%
THDCA, percent of total measured BA (mouse PCLS [1]; [3]): 1.3%
UDCA, percent of total measured BA (mouse PCLS [1]; [3]): 4.7%
CA, percentage of the total amount of BA (mouse PCLS [1]; [4]): 26.7%
CDCA, percentage of the total amount of BA (mouse PCLS [1]; [4]): 3.55%
DCA, percentage of the total amount of BA (mouse PCLS [1]; [4]): 25.3%
GCA, percentage of the total amount of BA (mouse PCLS [1]; [4]): 2.2%
HDCA, percentage of the total amount of BA (mouse PCLS [1]; [4]): 1.2%
LCA, percentage of the total amount of BA (mouse PCLS [1]; [4]): 1.3%
TCA, percentage of the total amount of BA (mouse PCLS [1]; [4]): 29.8%
TCDCA, percentage of the total amount of BA (mouse PCLS [1]; [4]): 1.5%
TDCA, percentage of the total amount of BA (mouse PCLS [1]; [4]): 3.8%
THDCA, percentage of the total amount of BA (mouse PCLS [1]; [4]): 0.8%
UDCA, percentage of the total amount of BA (mouse PCLS [1]; [4]): 3.9%
CA, percent of total measured BA (mouse PCLS [1]; [5]): 1.8%
CDCA, percent of total measured BA (mouse PCLS [1]; [5]): 1.1%
DCA, percent of total measured BA (mouse PCLS [1]; [5]): 0.4%
GCA, percent of total measured BA (mouse PCLS [1]; [5]): 0.0%
HDCA, percent of total measured BA (mouse PCLS [1]; [5]): 0.0%
LCA, percent of total measured BA (mouse PCLS [1]; [5]): 1.2%
TCA, percent of total measured BA (mouse PCLS [1]; [5]): 4.5%
TCDCA, percent of total measured BA (mouse PCLS [1]; [5]): 77.4%
TDCA, percent of total measured BA (mouse PCLS [1]; [5]): 0.7%
THDCA, percent of total measured BA (mouse PCLS [1]; [5]): 12.8%
UDCA, percent of total measured BA (mouse PCLS [1]; [5]): 0.0%
CA, percent of total measured BA (mouse PCLS [1]; [6]): 1.1%
CDCA, percent of total measured BA (mouse PCLS [1]; [6]): 1.1%
DCA, percent of total measured BA (mouse PCLS [1]; [6]): 0.4%
GCA, percent of total measured BA (mouse PCLS [1]; [6]): 0.0%
HDCA, percent of total measured BA (mouse PCLS [1]; [6]): 0.0%
LCA, percent of total measured BA (mouse PCLS [1]; [6]): 1.1%
TCA, percent of total measured BA (mouse PCLS [1]; [6]): 3.6%
TCDCA, percent of total measured BA (mouse PCLS [1]; [6]): 76.5%
TDCA, percent of total measured BA (mouse PCLS [1]; [6]): 0.2%
THDCA, percent of total measured BA (mouse PCLS [1]; [6]): 16.0%
UDCA, percent of total measured BA (mouse PCLS [1]; [6]): 0.0%
HS (hillslope of concentration-response curve) (mouse PCLS [2]; w/o BA, fit with IC different with and w/o BA): -4.6
HS (hillslope of concentration-response curve) (mouse PCLS [2]; with BA, fit with IC different with and w/o BA): -4.6

COc1ccc(Cl)cc1C(=O)NCCc1ccc(S(=O)(=O)NC(=O)NC2CCCCC2)cc1 [GB, Glibenclamide]
CA, percent of total measured BA (mouse PCLS [1]; [3]): 30.5%
CDCA, percent of total measured BA (mouse PCLS [1]; [3]): 4.3%
DCA, percent of total measured BA (mouse PCLS [1]; [3]): 14.9%
GCA, percent of total measured BA (mouse PCLS [1]; [3]): 4.0%
HDCA, percent of total measured BA (mouse PCLS [1]; [3]): 2.8%
LCA, percent of total measured BA (mouse PCLS [1]; [3]): 0.2%
TCA, percent of total measured BA (mouse PCLS [1]; [3]): 30.6%
TCDCA, percent of total measured BA (mouse PCLS [1]; [3]): 2.3%
TDCA, percent of total measured BA (mouse PCLS [1]; [3]): 2.2%
THDCA, percent of total measured BA (mouse PCLS [1]; [3]): 2.4%
UDCA, percent of total measured BA (mouse PCLS [1]; [3]): 5.6%
CA, percentage of the total amount of BA (mouse PCLS [1]; [4]): 25.9%
CDCA, percentage of the total amount of BA (mouse PCLS [1]; [4]): 2.9%
DCA, percentage of the total amount of BA (mouse PCLS [1]; [4]): 23.7%
GCA, percentage of the total amount of BA (mouse PCLS [1]; [4]): 4.4%
HDCA, percentage of the total amount of BA (mouse PCLS [1]; [4]): 5.0%
LCA, percentage of the total amount of BA (mouse PCLS [1]; [4]): 0.2%
TCA, percentage of the total amount of BA (mouse PCLS [1]; [4]): 26.4%
TCDCA, percentage of the total amount of BA (mouse PCLS [1]; [4]): 1.7%
TDCA, percentage of the total amount of BA (mouse PCLS [1]; [4]): 2.9%
THDCA, percentage of the total amount of BA (mouse PCLS [1]; [4]): 2.2%
UDCA, percentage of the total amount of BA (mouse PCLS [1]; [4]): 4.8%
CA, percent of total measured BA (mouse PCLS [1]; [5]): 8.2%
CDCA, percent of total measured BA (mouse PCLS [1]; [5]): 3.7%
DCA, percent of total measured BA (mouse PCLS [1]; [5]): 9.4%
GCA, percent of total measured BA (mouse PCLS [1]; [5]): 0.0%
HDCA, percent of total measured BA (mouse PCLS [1]; [5]): 0.0%
LCA, percent of total measured BA (mouse PCLS [1]; [5]): 2.4%
TCA, percent of total measured BA (mouse PCLS [1]; [5]): 10.5%
TCDCA, percent of total measured BA (mouse PCLS [1]; [5]): 36.6%
TDCA, percent of total measured BA (mouse PCLS [1]; [5]): 0.4%
THDCA, percent of total measured BA (mouse PCLS [1]; [5]): 28.8%
UDCA, percent of total measured BA (mouse PCLS [1]; [5]): 0.0%
CA, percent of total measured BA (mouse PCLS [1]; [6]): 13.1%
CDCA, percent of total measured BA (mouse PCLS [1]; [6]): 10.1%
DCA, percent of total measured BA (mouse PCLS [1]; [6]): 3.4%
GCA, percent of total measured BA (mouse PCLS [1]; [6]): 0.0%
HDCA, percent of total measured BA (mouse PCLS [1]; [6]): 0.9%
LCA, percent of total measured BA (mouse PCLS [1]; [6]): 5.5%
TCA, percent of total measured BA (mouse PCLS [1]; [6]): 6.3%
TCDCA, percent of total measured BA (mouse PCLS [1]; [6]): 48.5%
TDCA, percent of total measured BA (mouse PCLS [1]; [6]): 0.2%
THDCA, percent of total measured BA (mouse PCLS [1]; [6]): 11.8%
UDCA, percent of total measured BA (mouse PCLS [1]; [6]): 0.0%
HS (hillslope of concentration-response curve) (mouse PCLS [2]; Table S3, one fit, the same with and w/o BA): -4.8
